Taken from: PubChem BioAssay AID686943 (Drosophila RNAi Screening Center, 2013)
The screen tested about 23,000 reagents; this is an unselected part of those that have a named target and a result. 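Extra replicates exist only for a retested subset of genes; insulin dose and duration not given; both raised and lowered dpERK matter.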 Not all columns of the deposit are shown. No sequences are given here. The record does not give: the amount of reagent, the time to read-out.

Aim: 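Fly genes whose loss alters ERK activation after insulin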 (primary screen)
System: Drosophila S2R+ haemocyte-like cells expressing YFP-tagged ERK (Rolled)
Reagent: long dsRNA against Drosophila genes
Challenge: insulin stimulation versus unstimulated cells; dose and duration not given
Measured: 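Per-plate z-scores of phospho-ERK immunostaining normalised to YFP-tagged ERK, measured with and without insulin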
Direction: replicate 1, z-score of dpERK with insulin and replicate 2, z-score of dpERK with insulin: higher = more active ERK per ERK-YFP after insulin

Depletion of CheB74a [DRSC09503] resulted in: replicate 1, z-score of dpERK with insulin -0.85; replicate 2, z-score of dpERK with insulin -0.49. Silencing of CG8768 [DRSC07259] resulted in: replicate 1, z-score of dpERK with insulin -0.34; replicate 2, z-score of dpERK with insulin 0.31. CG30484 [DRSC05457] showed replicate 1, z-score of dpERK with insulin 0.03; replicate 2, z-score of dpERK with insulin -0.14. Against CG10591 [DRSC09748], the entry reads replicate 1, z-score of dpERK with insulin 0.98; replicate 2, z-score of dpERK with insulin -0.79. Against Klp54D [DRSC07450], the values are replicate 1, z-score of dpERK with insulin 0.2; replicate 2, z-score of dpERK with insulin 0.8. COX6AL [DRSC21454] scored replicate 1, z-score of dpERK with insulin -0.15; replicate 2, z-score of dpERK with insulin 0.63.

Against Gcna [DRSC18553] the deposit lists replicate 1, z-score of dpERK with insulin 0.46; replicate 2, z-score of dpERK with insulin 0.51. Silencing of raw [DRSC03599] gave: replicate 1, z-score of dpERK with insulin -6.97; replicate 2, z-score of dpERK with insulin -4.88. Depletion of raw [DRSC03600] gave: replicate 1, z-score of dpERK with insulin -3.84; replicate 2, z-score of dpERK with insulin -3.18. Depletion of CG15765 [DRSC18071] gave: replicate 1, z-score of dpERK with insulin -1.6; replicate 2, z-score of dpERK with insulin -2.44. With knock-down of Stlk [DRSC22687], the screen gave replicate 1, z-score of dpERK with insulin -4.46; replicate 2, z-score of dpERK with insulin 0.28. For CG14395 [DRSC14852], the entry reads replicate 1, z-score of dpERK with insulin 0.06; replicate 2, z-score of dpERK with insulin 0.83.

With knock-down of CG42822 [DRSC13232] the results were replicate 1, z-score of dpERK with insulin 0.96; replicate 2, z-score of dpERK with insulin 0.39. For Alp9 [DRSC10486], the values are replicate 1, z-score of dpERK with insulin -0.24; replicate 2, z-score of dpERK with insulin -1.35. CG14194 [DRSC19549] gave replicate 1, z-score of dpERK with insulin -1.6; replicate 2, z-score of dpERK with insulin -0.51. CR31958 [DRSC00282] showed replicate 1, z-score of dpERK with insulin 0.11; replicate 2, z-score of dpERK with insulin 0.31. After knock-down of CR31958 [DRSC21858], the record shows replicate 1, z-score of dpERK with insulin 0.64; replicate 2, z-score of dpERK with insulin 1.23. With knock-down of nrm [DRSC11597] the results were replicate 1, z-score of dpERK with insulin -0.18; replicate 2, z-score of dpERK with insulin 0.41.

nrm [DRSC11599] gave replicate 1, z-score of dpERK with insulin -0.5; replicate 2, z-score of dpERK with insulin 0.68. With knock-down of nrm [DRSC11897] the results were replicate 1, z-score of dpERK with insulin 0.11; replicate 2, z-score of dpERK with insulin 0.86. stops [DRSC15095] showed replicate 1, z-score of dpERK with insulin 0.73; replicate 2, z-score of dpERK with insulin -0.15. With knock-down of stops [DRSC15096] the results were replicate 1, z-score of dpERK with insulin -0.31; replicate 2, z-score of dpERK with insulin 0. Against stops [DRSC15097], the entry reads replicate 1, z-score of dpERK with insulin -0.5; replicate 2, z-score of dpERK with insulin 0.01. With knock-down of CG7179 [DRSC03020], the record shows replicate 1, z-score of dpERK with insulin 1.22; replicate 2, z-score of dpERK with insulin 0.44.

Silencing of CG31431 [DRSC14589] resulted in: replicate 1, z-score of dpERK with insulin 0.16; replicate 2, z-score of dpERK with insulin 0.43. Cpsf73 [DRSC16291] showed replicate 1, z-score of dpERK with insulin 0.98; replicate 2, z-score of dpERK with insulin -0.99. Knock-down of CG14183 [DRSC10182] gave: replicate 1, z-score of dpERK with insulin 0; replicate 2, z-score of dpERK with insulin 0.1. Depletion of unc-13-4A [DRSC10201] came out at: replicate 1, z-score of dpERK with insulin -0.23; replicate 2, z-score of dpERK with insulin 0.83. Depletion of unc-13-4A [DRSC10202] gave: replicate 1, z-score of dpERK with insulin -0.02; replicate 2, z-score of dpERK with insulin 0.34. For unc-13-4A [DRSC10203], the entry reads replicate 1, z-score of dpERK with insulin -2.71; replicate 2, z-score of dpERK with insulin -3.93.

For unc-13-4A [DRSC11013], the values are replicate 1, z-score of dpERK with insulin 0.23; replicate 2, z-score of dpERK with insulin 0.38.
